Values from PubChem BioAssay AID1259405 (NCATS, 2018)
Here is one part, drawn at random, of about 50,000 deposited reagents. About 4,000 of them (8%) were called active. 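Mouse siRNA library applied to hamster cells; one well for each siRNA.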 Reagents against one gene are numbered here. Reagent sequences are not shown.

Aim: 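Silenced genes that increase secreted GFP made by CHO cells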 (primary screen)
System: Chinese hamster CHO-K1 ovary cells with stable secreted eGFP expression
Reagent: single siRNA against mouse genes, 0.8 pmol siRNA per well (2 µl of 400 nM stock)
Time to read-out: 3 days
Detection: 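Percent of the per-plate non-targeting control median for intracellular GFP per well by laser scanning cytometry and for cell viability by ATP luminescence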
Direction: GFP, % of control: higher = more GFP per well, higher productivity; viability (ATP), % of control: higher = more viable cells (more ATP)
Call rule: 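Called active when intracellular GFP, relative to negative control, is at or above 120%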

no.	target gene	siRNA no.	GFP, % of control	viability (ATP), % of control	activity call
1	P2ry12	1	83.9	68.4	inactive
2	P2ry12	2	67	71.5	inactive
3	P2ry12	3	118	86	inactive
4	Zbtb33	1	76.9	91.2	inactive
5	Zbtb33	2	90.5	93.5	inactive
6	Zbtb33	3	79.4	109	inactive
7	Gm128	1	68.4	74.7	inactive
8	Gm128	2	83.8	82.4	inactive
9	Gm128	3	68.2	42.8	inactive
10	Ptpn4	1	69.2	93.2	inactive
11	Ptpn4	2	71.7	97.7	inactive
12	Mzt1	1	91.6	79.3	inactive
13	Mzt1	2	32.8	58.5	inactive
14	Mzt1	3	112	49.2	inactive
15	Lrrc4c	1	114	74.3	inactive
16	Lrrc4c	2	95.2	74.8	inactive
17	Lrrc4c	3	53.5	85.6	inactive
18	Cdk5rap1	1	73.9	83.4	inactive
19	Cdk5rap1	2	75.2	78.2	inactive
20	Cdk5rap1	3	70.8	103	inactive
21	Psma6	1	9.51	4.21	inactive
22	Psma6	2	77.5	60.6	inactive
23	Psma6	3	10.9	3.27	inactive
24	Lta	1	205	124	active
25	Lta	2	107	82.1	inactive
26	Or51a24	1	98.7	75.9	inactive
27	Or51a24	2	73.6	72.3	inactive
28	Or51a24	3	47.8	70.7	inactive
29	Slco4c1	1	94.1	66.5	inactive
30	Slco4c1	2	79.2	90	inactive
31	Slco4c1	3	140	101	active
32	Smpd2	1	93.2	101	inactive
33	Smpd2	2	41.6	62.4	inactive
34	Smpd2	3	81.6	67.2	inactive
35	Or11g25	1	85.6	82.4	inactive
36	Or11g25	2	94.1	120	inactive
37	Or11g25	3	34.6	49.8	inactive
38	Slfnl1	1	83.7	86.8	inactive
39	Slfnl1	2	68	82.5	inactive
40	Slfnl1	3	105	114	inactive
41	Pfkfb1	1	52.2	74.8	inactive
42	Pfkfb1	2	82	77.3	inactive
43	Pfkfb1	3	90.1	88.1	inactive
44	Fam32a	1	63.2	69.7	inactive
45	Fam32a	2	23.8	21.3	inactive
46	Fam32a	3	46.8	50.1	inactive

The list goes on, starting with the last 6 of the part before.
no.	target gene	siRNA no.	GFP, % of control	viability (ATP), % of control	activity call
41	Pfkfb1	1	52.2	74.8	inactive
42	Pfkfb1	2	82	77.3	inactive
43	Pfkfb1	3	90.1	88.1	inactive
44	Fam32a	1	63.2	69.7	inactive
45	Fam32a	2	23.8	21.3	inactive
46	Fam32a	3	46.8	50.1	inactive
47	Tmem160	1	106	81.1	inactive
48	Tmem160	2	48.4	42.3	inactive
49	Tmem160	3	81.6	92.7	inactive
50	Kat7	1	63.7	87.7	inactive
51	Kat7	2	73.1	52	inactive
52	Kat7	3	80	68.8	inactive
53	Htr5a	1	66.8	70.5	inactive
54	Htr5a	2	101	101	inactive
55	Htr5a	3	99.8	52.4	inactive
56	Cfi	1	67.7	124	inactive
57	Cfi	2	46.1	50.1	inactive
58	Atg3	1	70.1	61.9	inactive
59	Atg3	2	32.7	33.7	inactive
60	Atg3	3	58.5	67	inactive
61	Ilkap	1	92.3	96.9	inactive
62	Ilkap	2	106	88.4	inactive
63	Ilkap	3	63.6	72.9	inactive
64	Aspdh	1	198	113	active
65	Aspdh	2	64.8	66	inactive
66	Aspdh	3	37.1	47.6	inactive
67	Anxa7	1	170	145	active
68	Anxa7	2	58.6	56.2	inactive
69	Anxa7	3	75.2	74.3	inactive
70	Anxa7	4	103	76.3	inactive
71	Anxa7	5	95.9	84	inactive
72	Anxa7	6	120	85.3	inactive
73	Dhps	1	88.3	114	inactive
74	Dhps	2	50.5	56.3	inactive
75	Dhps	3	128	111	active
76	Hipk3	1	87.4	67.1	inactive
77	Spata31f3	1	62.2	60.6	inactive
78	Spata31f3	2	76.3	73	inactive
79	Spata31f3	3	113	117	inactive
80	Pllp	1	107	60.5	inactive
81	Pllp	2	57.1	74.2	inactive
82	Pllp	3	76.6	66.7	inactive
83	Nicn1	1	74.7	61.6	inactive
84	Nicn1	2	36	54.7	inactive
85	Nicn1	3	134	56.6	active
